{"source": "paper PMC4117778", "target": "human DNA polymerase beta (polβ) (Homo sapiens) (UniProt P06746)", "test": "X-ray crystallography", "conditions": "nonhydrolyzable dTTP analog (dTTP*), open conformation, template G6 = 2'-fluoro-N7-methyl-2'-deoxyguanosine (Fm7dG), 5'-phosphate on downstream primer GTCGG, kinetics (turnover only, not listed): 50 mM Tris-HCl pH 7.5, 5 mM MgCl2, 100 mM KCl, 80 nM DNA, 37°C, recombinant protein", "note": "The exact form of at least one protein or probe is not confirmed. At least one verdict rests on a figure or table, not on a statement of the authors.", "data": [{"sequence": "CCGACGTCGCATCAGC / GCTGATGCGA / GTCGG [single-nucleotide gapped DNA with templating Fm7dG (crystal)]", "values": [{"measurement": "binding result", "setting": "Mg2+ (nucleotide-binding metal only), 2.5 Å", "value": "binds"}, {"measurement": "binding result", "setting": "Mn2+ (both metals)", "value": "binds"}]}]}
